Paper PMC4604685
No constants are given. Whether binding was seen depends on the method and setting. In cells and extracts the contact can be indirect.

Chains of the proteins cited; added tags and fusions are not shown.
UniProt P04797: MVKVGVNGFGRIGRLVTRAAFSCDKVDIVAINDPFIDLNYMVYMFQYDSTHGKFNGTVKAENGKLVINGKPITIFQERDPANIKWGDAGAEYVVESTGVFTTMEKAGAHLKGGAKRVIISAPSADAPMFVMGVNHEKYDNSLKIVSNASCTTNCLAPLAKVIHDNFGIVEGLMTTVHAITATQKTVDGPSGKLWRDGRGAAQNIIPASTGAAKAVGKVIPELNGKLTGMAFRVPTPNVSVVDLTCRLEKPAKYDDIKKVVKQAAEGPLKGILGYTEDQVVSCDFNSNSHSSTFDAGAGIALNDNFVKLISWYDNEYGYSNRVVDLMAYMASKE

Biological target: glyceraldehyde-3-phosphate dehydrogenase (GAPDH), endogenous in PC12 cells (rat (endogenous in PC12)) (UniProt P04797)
Assay: co-IP; immunoprecipitation of GAPDH from total lysates of PC12 cells expressing Q74, RIPA buffer without detergent (Triton X-100); blots for organelle marker proteins

B1: calnexin (protein, UniProt P35565 21-591)
chain: HDGHDDDMIDIEDDLDDVIEEVEDSKSKSDTSTPPSPKVTYKAPVPTGEVYFADSFDRGSLSGWILSKAKKDDTDDEIAKYDGKWEVDEMKETKLPGDKGLVLMSRAKHHAISAKLNKPFLFDTKPLIVQYEVNFQNGIECGGAYVKLLSKTSELNLDQFHDKTPYTIMFGPDKCGEDYKLHFIFRHKNPKTGVYEEKHAKRPDADLKTYFTDKKTHLYTLILNPDNSFEILVDQSVVNSGNLLNDMTPPVNPSREIEDPEDRKPEDWDERPKIADPDAVKPDDWDEDAPSKIPDEEATKPEGWLDDEPEYIPDPDAEKPEDWDEDMDGEWEAPQIANPKCESAPGCGVWQRPMIDNPNYKGKWKPPMIDNPNYQGIWKPRKIPNPDFFEDLEPFRMTPFSAIGLELWSMTSDIFFDNFIISGDRRVVDDWANDGWGLKKAADGAAEPGVVGQMLEAAEERPWLWVVYILTVALPVFLVILFCCSGKKQSNAMEYKKTDAPQPDVKDEEGKEEEKNKGDEEEEEEKLEEKQKSDAEEDGGTGSQDEEDSKPKAEEDEILNRSPRNRKPRRE
  binding: no binding
